Data source: PubChem BioAssay AID1224827 (NIAID, 2016)
Here is a random part of about 3,800 reagents tested. Over the whole deposit, about 2,200 (57%) got an active call. 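Active means a strong reporter change in either direction; calls are per siRNA, not per gene; qiagen siRNAs gave weaker effects.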 The numbers tell different reagents against one gene apart. Not all columns of the deposit are shown.

Purpose: 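Confirm genes whose knock-down changes LPS-driven TNF promoter activity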 (follow-up of hits)
Cell system: RAW264.7 G9 mouse macrophage reporter clone
Knock-down reagent: single siRNA against mouse genes, 100 nM siRNA
Time to read-out: siRNA for 2 days, then LPS about 16 h
Challenge: bacterial lipopolysaccharide (LPS), 10 ng/ml, cells fixed after overnight (about 16 h) stimulation
Detection: 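TNF promoter reporter red fluorescence in nuclei, background subtracted, normalised per plate and to non-targeting control siRNA, as z-scores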
Direction: TNF reporter z-score, mean: higher = stronger Tnf promoter reporter signal
Rule for the call: 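Active siRNA: replicate-mean z-score of 2 or more, or -2 or less; no calls for control wells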

Target gene	reagent	TNF reporter z-score, mean	Outcome
Cct7 (chaperonin containing TCP1 subunit 7)	1	-3.63	active
Cct7 (chaperonin containing TCP1 subunit 7)	2	-4.48	active
Cct7 (chaperonin containing TCP1 subunit 7)	3	-4.41	active
Cct7 (chaperonin containing TCP1 subunit 7)	4	1.98	inactive
Cct7 (chaperonin containing TCP1 subunit 7)	5	0.978	inactive
Cct7 (chaperonin containing TCP1 subunit 7)	6	-0.671	inactive
Pard6a (par-6 family cell polarity regulator alpha)	1	-0.842	inactive
Pard6a (par-6 family cell polarity regulator alpha)	2	-3.29	active
Pard6a (par-6 family cell polarity regulator alpha)	3	-4.73	active
Cpeb1 (cytoplasmic polyadenylation element binding protein 1)	1	-2.08	active
Cpeb1 (cytoplasmic polyadenylation element binding protein 1)	2	-3.89	active
Cpeb1 (cytoplasmic polyadenylation element binding protein 1)	3	-4.44	active
Cpeb1 (cytoplasmic polyadenylation element binding protein 1)	4	2.82	active
Cpeb1 (cytoplasmic polyadenylation element binding protein 1)	5	0.84	inactive
Cpeb1 (cytoplasmic polyadenylation element binding protein 1)	6	-3.72	active
Nanp (N-acetylneuraminic acid phosphatase)	1	3.58	active
Nanp (N-acetylneuraminic acid phosphatase)	2	-3.37	active
Nanp (N-acetylneuraminic acid phosphatase)	3	-4.23	active
Nanp (N-acetylneuraminic acid phosphatase)	4	2.32	active
Nanp (N-acetylneuraminic acid phosphatase)	5	-1	inactive
Nanp (N-acetylneuraminic acid phosphatase)	6	-3.53	active
Il22b (interleukin 22B)	1	10.3	active
Il22b (interleukin 22B)	2	-4.6	active
Il22b (interleukin 22B)	3	-6.45	active
Il22b (interleukin 22B)	4	2.7	active
Il22b (interleukin 22B)	5	1.58	inactive
Il22b (interleukin 22B)	6	1.37	inactive
Synj2bp (synaptojanin 2 binding protein)	1	-2.22	active
Synj2bp (synaptojanin 2 binding protein)	2	-5.56	active
Synj2bp (synaptojanin 2 binding protein)	3	-5.61	active
Kif23 (kinesin family member 23)	1	-1.93	inactive
Kif23 (kinesin family member 23)	2	-3.79	active
Kif23 (kinesin family member 23)	3	-4.14	active
Kif23 (kinesin family member 23)	4	0.899	inactive
Kif23 (kinesin family member 23)	5	0.364	inactive
Kif23 (kinesin family member 23)	6	-2.14	active
Srrt (serrate RNA effector molecule homolog (Arabidopsis))	1	2.57	active
Srrt (serrate RNA effector molecule homolog (Arabidopsis))	2	-3.13	active
Srrt (serrate RNA effector molecule homolog (Arabidopsis))	3	-3.55	active
Srrt (serrate RNA effector molecule homolog (Arabidopsis))	4	-0.162	inactive
Srrt (serrate RNA effector molecule homolog (Arabidopsis))	5	-1.95	inactive
Srrt (serrate RNA effector molecule homolog (Arabidopsis))	6	-2.01	active
9230109A22Rik (RIKEN cDNA 9230109A22 gene)	1	3.2	active
9230109A22Rik (RIKEN cDNA 9230109A22 gene)	2	1.29	inactive
9230109A22Rik (RIKEN cDNA 9230109A22 gene)	3	-3.86	active
9230109A22Rik (RIKEN cDNA 9230109A22 gene)	4	1.87	inactive
9230109A22Rik (RIKEN cDNA 9230109A22 gene)	5	0.459	inactive
9230109A22Rik (RIKEN cDNA 9230109A22 gene)	6	0.774	inactive

8 entries from above, reformatted.
Target gene | reagent | TNF reporter z-score, mean | Outcome
Il22b (interleukin 22B) | 2 | -4.6 | active
Il22b (interleukin 22B) | 3 | -6.45 | active
Il22b (interleukin 22B) | 4 | 2.7 | active
Il22b (interleukin 22B) | 5 | 1.58 | inactive
Il22b (interleukin 22B) | 6 | 1.37 | inactive
Synj2bp (synaptojanin 2 binding protein) | 1 | -2.22 | active
Synj2bp (synaptojanin 2 binding protein) | 2 | -5.56 | active
Synj2bp (synaptojanin 2 binding protein) | 3 | -5.61 | active

The results go on.
Target gene	reagent	TNF reporter z-score, mean	Outcome
Cbln2 (cerebellin 2 precursor protein)	1	6.35	active
Cbln2 (cerebellin 2 precursor protein)	2	1.9	inactive
Cbln2 (cerebellin 2 precursor protein)	3	-0.838	inactive
Cbln2 (cerebellin 2 precursor protein)	4	3.39	active
Cbln2 (cerebellin 2 precursor protein)	5	0.163	inactive
Cbln2 (cerebellin 2 precursor protein)	6	-2.82	active
2810032G03Rik (RIKEN cDNA 2810032G03 gene)	1	-1.63	inactive
2810032G03Rik (RIKEN cDNA 2810032G03 gene)	2	-3.84	active
2810032G03Rik (RIKEN cDNA 2810032G03 gene)	3	-5.11	active
2810032G03Rik (RIKEN cDNA 2810032G03 gene)	4	1.38	inactive
2810032G03Rik (RIKEN cDNA 2810032G03 gene)	5	-1.81	inactive
2810032G03Rik (RIKEN cDNA 2810032G03 gene)	6	-2.43	active
Ammecr1l (AMME chromosomal region gene 1-like)	1	0.505	inactive
Ammecr1l (AMME chromosomal region gene 1-like)	2	-4.57	active
Ammecr1l (AMME chromosomal region gene 1-like)	3	-5.3	active
Ammecr1l (AMME chromosomal region gene 1-like)	4	4.21	active
Ammecr1l (AMME chromosomal region gene 1-like)	5	0.875	inactive
Ammecr1l (AMME chromosomal region gene 1-like)	6	-1.39	inactive
Ikzf1 (IKAROS family zinc finger 1)	1	-3.69	active
Ikzf1 (IKAROS family zinc finger 1)	2	-5.22	active
Ikzf1 (IKAROS family zinc finger 1)	3	-5.94	active
Ikzf1 (IKAROS family zinc finger 1)	4	1.42	inactive
Ikzf1 (IKAROS family zinc finger 1)	5	-1.86	inactive
Ikzf1 (IKAROS family zinc finger 1)	6	-3.82	active
Nfe2 (nuclear factor, erythroid derived 2)	1	-1.29	inactive
Nfe2 (nuclear factor, erythroid derived 2)	2	-3.77	active
Nfe2 (nuclear factor, erythroid derived 2)	3	-4.78	active
Nfe2 (nuclear factor, erythroid derived 2)	4	5.45	active
Nfe2 (nuclear factor, erythroid derived 2)	5	0.865	inactive
Nfe2 (nuclear factor, erythroid derived 2)	6	1.21	inactive
